Results reported in patent US6365154 (GlaxoSmithKline, dated 2002).
Results are given in words; binding and its absence hold for the method and conditions named. Some binding calls cover weakened binding; strength is not graded here.

Sequences of proteins named here, by UniProt entry; tags and fusion partners are left off. A change or cut given only in a name is not applied to a line headed by its entry. Residues count along the entry.
UniProt Q02763: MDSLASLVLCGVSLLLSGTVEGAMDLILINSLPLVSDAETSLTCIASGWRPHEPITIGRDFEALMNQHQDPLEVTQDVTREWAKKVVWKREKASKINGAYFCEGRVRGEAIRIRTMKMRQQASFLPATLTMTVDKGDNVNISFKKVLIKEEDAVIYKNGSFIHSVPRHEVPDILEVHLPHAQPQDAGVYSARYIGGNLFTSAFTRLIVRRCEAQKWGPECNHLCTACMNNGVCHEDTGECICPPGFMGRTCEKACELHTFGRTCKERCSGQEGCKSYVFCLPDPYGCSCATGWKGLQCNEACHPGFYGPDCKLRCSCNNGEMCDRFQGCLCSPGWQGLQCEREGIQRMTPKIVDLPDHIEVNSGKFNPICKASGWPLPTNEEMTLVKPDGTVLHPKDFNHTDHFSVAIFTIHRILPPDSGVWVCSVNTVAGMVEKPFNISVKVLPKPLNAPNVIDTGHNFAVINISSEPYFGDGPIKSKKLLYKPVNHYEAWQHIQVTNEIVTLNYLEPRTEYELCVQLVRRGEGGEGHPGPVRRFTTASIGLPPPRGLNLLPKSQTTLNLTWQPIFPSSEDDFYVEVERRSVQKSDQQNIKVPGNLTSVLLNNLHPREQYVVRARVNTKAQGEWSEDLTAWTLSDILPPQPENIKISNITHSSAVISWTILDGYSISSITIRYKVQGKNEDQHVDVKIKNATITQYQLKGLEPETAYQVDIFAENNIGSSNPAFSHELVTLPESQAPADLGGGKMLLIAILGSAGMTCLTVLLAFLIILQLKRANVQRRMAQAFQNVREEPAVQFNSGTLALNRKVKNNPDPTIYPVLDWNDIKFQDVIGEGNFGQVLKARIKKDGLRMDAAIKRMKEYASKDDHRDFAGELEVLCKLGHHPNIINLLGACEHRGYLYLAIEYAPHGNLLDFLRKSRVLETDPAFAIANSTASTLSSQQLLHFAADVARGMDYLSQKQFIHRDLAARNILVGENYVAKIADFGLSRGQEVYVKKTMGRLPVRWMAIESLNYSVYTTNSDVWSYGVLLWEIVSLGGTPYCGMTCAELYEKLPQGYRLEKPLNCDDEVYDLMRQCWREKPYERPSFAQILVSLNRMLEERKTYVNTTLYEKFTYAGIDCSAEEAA
recombinant Tie2 extracellular domain-Fc fusion: residues 23-748 of Q02763
soluble monomeric Tie2 receptor: residues 23-745 of Q02763

How the values were obtained:
[1] = molecular target: recombinant Tie2 extracellular domain-Fc fusion (UniProt Q02763); assay: BIAcore SPR; mAb captured on rabbit anti-mouse IgG Fc with Tie2-Fc injected, and the reverse format
[2] = molecular target: soluble monomeric Tie2 receptor (UniProt Q02763); assay: BIAcore SPR

Row | binding [1] | binding [2] | Binder
1 | binds | binds | murine monoclonal antibody 15B8 (antibody, V domains shown, Constant regions are mouse IgG heavy and kappa light, going by the PCR primers; also called mAb 15B8; mAb 1 B 8) VH: QVQLQQPGVVLVMPGASVKLSCKASGYTFASYWMHWVKQRPGQGLEWIGEIDPSDSYRNYNQKFKGKATLTVDKSSSTVNMQLSSLTSEDSAVYYCAKTSGIGRAMDYWGQGTSVTVSS VL: DIQMIQSPASLSASVGETVTITCRASENIYSFVTWYQQKQGKSPQLLVFNAKNLVEGVPSSFSGSGSGTQFSLKIDSLQPEDFGTYYCQHHYSIPYTFGGGTKLEMR
2 | binds | binds | murine monoclonal antibody 13H10 (antibody, V domains shown, Constant regions are mouse IgG heavy and kappa light, going by the PCR primers; also called mAb 13H10; mAb 13H 10) VH: QIQLVQSGPELKKPGETVKISCKASGYTFTDFSIHWVKQAPGKGLKWMGWINTETGETTYAEDFKGRFAFSLETSASTAYLQINNLKNEDTATYFCSRRYDYDTWFAYWGQGTLVTVS VL: DIVMTQAALSVPVTPGESVSISCRSSSSLLHRNGNTYLYWFLQRPGQSPQLLIYRMSNLASGVPDRFSGSGSGTAFTLRISRVEAEDVGVYYCMQRLEYPFTFGGGTKLEIKR
